Reference: article PMC6464043
No constants are given. Whether binding was seen depends on the method and setting. In cells and extracts the contact can be indirect. Some binding calls cover weakened binding; strength is not graded here.

Target: T1, Mcm3 (X. laevis (endogenous in egg extract)) (UniProt P49739)
T1 sequence: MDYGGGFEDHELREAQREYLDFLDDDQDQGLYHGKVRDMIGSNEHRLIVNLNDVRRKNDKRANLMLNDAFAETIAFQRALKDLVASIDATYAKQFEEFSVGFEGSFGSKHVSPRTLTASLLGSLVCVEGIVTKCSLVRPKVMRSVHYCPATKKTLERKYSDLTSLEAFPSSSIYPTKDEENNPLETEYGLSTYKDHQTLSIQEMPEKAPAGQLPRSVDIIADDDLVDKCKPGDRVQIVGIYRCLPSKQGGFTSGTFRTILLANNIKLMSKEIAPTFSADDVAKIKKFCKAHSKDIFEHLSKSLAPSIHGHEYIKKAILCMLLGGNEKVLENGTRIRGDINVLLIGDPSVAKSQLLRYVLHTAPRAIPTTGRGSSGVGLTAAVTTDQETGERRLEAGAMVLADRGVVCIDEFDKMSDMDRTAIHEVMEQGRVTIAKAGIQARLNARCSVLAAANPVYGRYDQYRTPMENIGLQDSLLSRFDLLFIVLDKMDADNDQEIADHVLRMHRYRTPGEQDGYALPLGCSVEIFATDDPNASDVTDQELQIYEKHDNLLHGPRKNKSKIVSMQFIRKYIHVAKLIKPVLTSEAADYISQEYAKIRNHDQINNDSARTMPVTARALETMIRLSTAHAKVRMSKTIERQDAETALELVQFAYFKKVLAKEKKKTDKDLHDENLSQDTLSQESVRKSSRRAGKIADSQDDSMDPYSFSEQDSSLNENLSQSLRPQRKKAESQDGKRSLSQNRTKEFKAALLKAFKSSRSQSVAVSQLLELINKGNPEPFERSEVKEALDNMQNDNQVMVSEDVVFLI
Test: co-IP; small proportion of the material of the mitotic Mcm3 immunoprecipitation analysed by Western blotting

binding: binds
B1: TRAIP ubiquitin ligase (protein, UniProt Q6NRV0 1-464)
chain: MPIRAYCTICSDFFDNARDVAAITCGHTFHQECLLQWFHSAPHRTCPQCRIQVSSRQIINKLFFDIGGEEETVLDAESLKNEVDRIKASLLVKEKEKRECQGLVDSLREMLDVRNVTIQSQQKELGDMEMLCSTLKKQIKFLDKQQSETKAAKDEARKLRNKLKTMESIEVLLQSQRSEVEEMIRDMGSGQAAVEQLAIYCVSLKKEYENLKEVRKSSAEMTEKLRKELFSSNHKAQKAELELTKVREELSASQKELHSADKEIMSLKKKVEFLQKTLTTPTASNEAISRLIFESPAPIGLERPKLRPPMMGNDINLDVTFDIDTPEHNTQKSVVAPFKKMKFDNKEHPLSSPTKNPLQESKGLMSWAGGRTGADEDDDLTLPSFIKNSLLHKKPVGSLLGLRQNTGAVRTGFDGLGGRTKFIQPSNLTEIRPLHQKMKRKKVSRPTACTSSLANQPRLEDFLK
